Laboratory results taken from patent US20210300943A1, “OGA INHIBITOR COMPOUNDS” (Janssen Pharmaceutica NV, priority 2018, published 2021).
The match of structure and compound is tentative.

By UniProt entry, the sequences of proteins in these tests, tags left out.
UniProt O60502, whole entry: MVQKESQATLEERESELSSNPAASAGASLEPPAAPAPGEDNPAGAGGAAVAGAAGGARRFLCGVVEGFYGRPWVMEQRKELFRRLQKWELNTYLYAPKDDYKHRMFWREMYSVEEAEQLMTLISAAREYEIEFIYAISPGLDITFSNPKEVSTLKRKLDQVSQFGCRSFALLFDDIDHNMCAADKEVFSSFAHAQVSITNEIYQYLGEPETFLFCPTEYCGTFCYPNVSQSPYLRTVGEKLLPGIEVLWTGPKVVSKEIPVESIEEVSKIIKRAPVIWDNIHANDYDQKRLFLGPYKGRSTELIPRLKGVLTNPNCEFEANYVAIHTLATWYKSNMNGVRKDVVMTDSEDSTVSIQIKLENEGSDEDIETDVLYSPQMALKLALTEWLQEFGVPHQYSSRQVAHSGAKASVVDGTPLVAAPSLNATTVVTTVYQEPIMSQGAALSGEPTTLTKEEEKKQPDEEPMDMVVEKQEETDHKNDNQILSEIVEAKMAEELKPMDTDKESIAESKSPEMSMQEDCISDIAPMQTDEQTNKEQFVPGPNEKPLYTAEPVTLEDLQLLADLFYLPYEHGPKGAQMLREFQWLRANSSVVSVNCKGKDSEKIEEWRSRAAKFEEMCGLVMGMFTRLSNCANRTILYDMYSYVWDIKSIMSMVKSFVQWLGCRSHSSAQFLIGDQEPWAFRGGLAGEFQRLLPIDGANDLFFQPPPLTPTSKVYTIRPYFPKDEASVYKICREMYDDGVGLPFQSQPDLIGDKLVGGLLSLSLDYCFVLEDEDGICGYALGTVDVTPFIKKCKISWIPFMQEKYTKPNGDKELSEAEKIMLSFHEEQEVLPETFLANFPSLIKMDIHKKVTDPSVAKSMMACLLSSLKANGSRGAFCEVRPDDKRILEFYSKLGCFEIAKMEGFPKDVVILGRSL

Experiments:
OGA = OGA (Homo sapiens, UniProt O60502); experiment: OGA cellular assay (ICC detection of O-GlcNAcylated proteins in HEK293 cells inducible for P301L mutant human Tau)
Method: HEK293 cells inducible for P301L mutant human Tau (isoform 2N4R) were established at Janssen. Thiamet-G was used for both plate validation (high control) and as reference compound (reference EC50 assay validation). OGA inhibition is evaluated through the immunocytochemical (ICC) detection of O-GlcNAcylated proteins by the use of a monoclonal antibody (CTD110.6; Cell Signaling, #9875) detecting 0-GlcNAcylated residues as previously described (Dorfmueller et al. 2010 Chemistry & biology, 17:1250). Inhibition of OGA will result in an increase of O-GlcNAcylated protein levels resulting in an increased signal in the experiment. Cell nuclei are stained with Hoechst to give a cell culture quality control and a rough estimate of immediate compounds toxicity, if any. ICC pictures are imaged with a Perkin Elmer Opera Phenix plate microscope and quantified with the provided software Perkin Elmer Harmony 4.1.
Cells were propagated in DMEM high Glucose (Sigma, #D5796) following standard procedures. 2 days before the cell assay cells are split, counted and seeded in Poly-D-Lysine (PDL) coated 96-wells (Greiner, #655946) plate at a cell density of 12,000 cells per cm^2 (4,000 cells per well) in 100 μl of Assay Medium (Low Glucose medium is used to reduce basal levels of GlcNAcylation) (Park et al. 2014 The Journal of biological chemistry 289:13519). […]

[1] = target: recombinant human Meningioma Expressed Antigen 5 (MGEA5), also referred to as O-GlcNAcase (OGA) (Homo sapiens, UniProt O60502); experiment: OGA biochemical assay (inhibition of FM-GlcNAc hydrolysis, fluorescence)
From the text: The assay is based on the inhibition of the hydrolysis of fluorescein mono-β-D-N-Acetyl-Glucosamine (FM-GlcNAc) (Mariappa et al. 2015, Biochem J 470:255) by the recombinant human Meningioma Expressed Antigen 5 (MGEA5), also referred to as O-GlcNAcase (OGA). The hydrolysis FM-GlcNAc (Marker Gene technologies, cat #M1485) results in the formation of β-D-N-glucosamineacetate and fluorescein. The fluorescence of the latter can be measured at excitation wavelength 485 nm and emission wavelength 538 nm. An increase in enzyme activity results in an increase in fluorescence signal. Full length OGA enzyme was purchased at OnGene (cat #TP322411). The enzyme was stored in 25 mM Tris.HCl, pH 7.3, 100 mM glycine, 10% glycerol at −20° C. Thiamet G and GlcNAcStatin were tested as reference compounds (Yuzwa et al. 2008 Nature Chemical Biology 4:483; Yuzwa et al. 2012 Nature Chemical Biology 8:393). The assay was performed in 200 mM Citrate/phosphate buffer supplemented with 0.005% Tween-20. […]
50 nl of a compound dissolved in DMSO was dispensed on Black Proxiplate TM 384 Plus Assay plates (Perkin Elmer, #6008269) and 3 μl fl-OGA enzyme mix added subsequently. […] Fluorescence was quantified in the Thermo Scientific Fluoroskan Ascent or the PerkinElmer EnVision with excitation wavelength 485 nm and emission wavelength 538 nm. […]

Cellular hOGA; pEC50 (OGA; 6 hours incubation): 7.5
Cellular Emax (%) (OGA; maximal effect, Thiamet G 200 uM as maximum): 85%
Enzymatic hOGA; pIC50 [1]: 8.2
SMILES: COc1cc(C[C@H]2CCCN(C(C)c3cc4c(cc3F)OCCO4)C2)cc(C)n1 (stereo partly drawn)
